Laboratory results taken from the supplement of paper PMC10849652.
Some of the results follow.

Sequences of proteins named here, by UniProt entry; tags and fusion partners are left off. A change or cut given only in a name is not applied to a line headed by its entry.
UniProt P00387: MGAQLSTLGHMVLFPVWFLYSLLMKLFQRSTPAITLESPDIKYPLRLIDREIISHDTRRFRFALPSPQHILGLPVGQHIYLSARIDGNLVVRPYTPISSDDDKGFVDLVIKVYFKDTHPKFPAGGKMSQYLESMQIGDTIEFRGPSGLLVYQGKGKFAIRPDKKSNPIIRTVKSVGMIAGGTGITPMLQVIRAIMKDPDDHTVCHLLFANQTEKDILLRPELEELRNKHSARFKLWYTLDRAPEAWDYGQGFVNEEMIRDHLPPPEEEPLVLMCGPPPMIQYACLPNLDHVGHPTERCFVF
UniProt P07711: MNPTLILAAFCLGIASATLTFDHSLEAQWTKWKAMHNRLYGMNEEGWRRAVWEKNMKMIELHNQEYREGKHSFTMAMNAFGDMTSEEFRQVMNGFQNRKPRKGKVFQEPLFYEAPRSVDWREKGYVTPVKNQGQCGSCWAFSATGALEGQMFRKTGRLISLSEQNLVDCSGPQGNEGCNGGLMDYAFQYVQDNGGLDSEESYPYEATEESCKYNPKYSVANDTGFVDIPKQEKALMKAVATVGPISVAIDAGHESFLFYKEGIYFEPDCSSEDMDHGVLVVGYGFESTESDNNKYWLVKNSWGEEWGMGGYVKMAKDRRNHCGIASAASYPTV
UniProt Q8WYA6: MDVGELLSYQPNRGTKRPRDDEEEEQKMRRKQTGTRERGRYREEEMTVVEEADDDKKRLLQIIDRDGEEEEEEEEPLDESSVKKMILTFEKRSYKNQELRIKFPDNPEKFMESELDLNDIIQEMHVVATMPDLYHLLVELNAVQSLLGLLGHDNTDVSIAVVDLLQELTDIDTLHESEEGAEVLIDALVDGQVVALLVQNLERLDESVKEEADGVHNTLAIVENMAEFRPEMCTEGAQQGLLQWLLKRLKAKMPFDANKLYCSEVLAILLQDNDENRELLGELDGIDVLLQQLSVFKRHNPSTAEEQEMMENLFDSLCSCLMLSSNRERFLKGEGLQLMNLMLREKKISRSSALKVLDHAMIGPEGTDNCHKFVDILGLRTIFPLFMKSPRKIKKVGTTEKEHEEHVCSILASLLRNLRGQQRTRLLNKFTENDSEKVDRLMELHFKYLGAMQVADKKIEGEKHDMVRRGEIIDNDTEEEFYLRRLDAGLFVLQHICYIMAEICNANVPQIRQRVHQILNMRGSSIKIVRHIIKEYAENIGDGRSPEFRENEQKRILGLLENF
UniProt Q9NTM9: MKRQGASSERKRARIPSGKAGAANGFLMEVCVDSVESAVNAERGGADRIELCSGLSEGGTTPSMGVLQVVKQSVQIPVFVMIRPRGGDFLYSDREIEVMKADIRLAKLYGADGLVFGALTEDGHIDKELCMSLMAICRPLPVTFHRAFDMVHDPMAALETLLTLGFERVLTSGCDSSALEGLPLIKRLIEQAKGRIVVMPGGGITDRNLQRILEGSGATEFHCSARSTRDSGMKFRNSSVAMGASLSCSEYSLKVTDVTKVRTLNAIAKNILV
UniProt Q6UXH1: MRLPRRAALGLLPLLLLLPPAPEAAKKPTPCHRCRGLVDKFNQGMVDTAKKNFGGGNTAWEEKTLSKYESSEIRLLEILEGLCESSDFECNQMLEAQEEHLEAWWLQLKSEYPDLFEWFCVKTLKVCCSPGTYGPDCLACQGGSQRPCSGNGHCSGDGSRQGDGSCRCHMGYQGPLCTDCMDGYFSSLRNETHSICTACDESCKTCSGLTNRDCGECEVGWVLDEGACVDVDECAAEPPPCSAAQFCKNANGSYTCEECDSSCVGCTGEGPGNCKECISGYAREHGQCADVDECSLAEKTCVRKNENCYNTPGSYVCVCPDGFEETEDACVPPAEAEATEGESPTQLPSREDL
UniProt P26232: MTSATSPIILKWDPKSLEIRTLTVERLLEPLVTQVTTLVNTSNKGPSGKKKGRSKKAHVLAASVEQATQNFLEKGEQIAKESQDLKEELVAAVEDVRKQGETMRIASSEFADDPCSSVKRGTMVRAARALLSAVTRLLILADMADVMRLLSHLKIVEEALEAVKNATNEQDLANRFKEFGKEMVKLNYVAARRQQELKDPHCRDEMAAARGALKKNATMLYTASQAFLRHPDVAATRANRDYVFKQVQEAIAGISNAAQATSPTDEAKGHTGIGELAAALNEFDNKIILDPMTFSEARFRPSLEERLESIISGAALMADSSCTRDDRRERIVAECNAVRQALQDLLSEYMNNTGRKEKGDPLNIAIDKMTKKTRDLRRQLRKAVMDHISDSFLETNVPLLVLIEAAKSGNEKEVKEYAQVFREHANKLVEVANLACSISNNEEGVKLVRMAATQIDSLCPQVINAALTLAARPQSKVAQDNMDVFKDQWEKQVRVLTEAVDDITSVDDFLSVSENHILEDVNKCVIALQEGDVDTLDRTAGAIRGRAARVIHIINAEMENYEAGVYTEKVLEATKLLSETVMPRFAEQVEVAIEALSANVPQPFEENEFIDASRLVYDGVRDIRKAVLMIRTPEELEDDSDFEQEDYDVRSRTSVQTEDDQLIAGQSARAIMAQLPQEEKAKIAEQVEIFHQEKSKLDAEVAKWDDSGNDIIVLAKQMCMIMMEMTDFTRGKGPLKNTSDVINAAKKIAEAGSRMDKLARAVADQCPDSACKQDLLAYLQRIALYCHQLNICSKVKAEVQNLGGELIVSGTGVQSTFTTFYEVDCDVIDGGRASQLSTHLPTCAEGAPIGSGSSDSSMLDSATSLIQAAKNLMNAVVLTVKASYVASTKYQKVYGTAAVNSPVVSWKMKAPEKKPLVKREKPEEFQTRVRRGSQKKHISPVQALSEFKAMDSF
UniProt P35221: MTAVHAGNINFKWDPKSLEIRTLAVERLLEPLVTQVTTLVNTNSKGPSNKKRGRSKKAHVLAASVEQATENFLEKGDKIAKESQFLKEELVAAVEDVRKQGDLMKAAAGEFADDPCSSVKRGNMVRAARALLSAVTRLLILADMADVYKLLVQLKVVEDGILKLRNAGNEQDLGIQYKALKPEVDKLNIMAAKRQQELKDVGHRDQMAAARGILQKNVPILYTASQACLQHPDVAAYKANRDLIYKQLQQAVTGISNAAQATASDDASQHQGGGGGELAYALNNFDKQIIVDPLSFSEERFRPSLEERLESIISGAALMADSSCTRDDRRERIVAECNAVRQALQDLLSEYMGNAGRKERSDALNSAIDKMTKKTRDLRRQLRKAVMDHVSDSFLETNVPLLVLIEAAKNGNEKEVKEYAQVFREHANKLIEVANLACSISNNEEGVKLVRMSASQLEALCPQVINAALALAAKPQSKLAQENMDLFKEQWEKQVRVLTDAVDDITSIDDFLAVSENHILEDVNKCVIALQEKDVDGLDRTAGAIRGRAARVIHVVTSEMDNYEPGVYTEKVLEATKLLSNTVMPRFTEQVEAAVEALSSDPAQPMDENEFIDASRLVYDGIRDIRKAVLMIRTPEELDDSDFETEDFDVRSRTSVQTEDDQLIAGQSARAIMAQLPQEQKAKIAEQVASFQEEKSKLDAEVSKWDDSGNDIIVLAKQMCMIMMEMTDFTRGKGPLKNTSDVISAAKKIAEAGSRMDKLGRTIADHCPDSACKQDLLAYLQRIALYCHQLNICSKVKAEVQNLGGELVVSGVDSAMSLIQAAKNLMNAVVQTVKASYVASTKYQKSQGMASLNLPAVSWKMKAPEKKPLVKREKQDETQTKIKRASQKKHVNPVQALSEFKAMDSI
UniProt Q08257: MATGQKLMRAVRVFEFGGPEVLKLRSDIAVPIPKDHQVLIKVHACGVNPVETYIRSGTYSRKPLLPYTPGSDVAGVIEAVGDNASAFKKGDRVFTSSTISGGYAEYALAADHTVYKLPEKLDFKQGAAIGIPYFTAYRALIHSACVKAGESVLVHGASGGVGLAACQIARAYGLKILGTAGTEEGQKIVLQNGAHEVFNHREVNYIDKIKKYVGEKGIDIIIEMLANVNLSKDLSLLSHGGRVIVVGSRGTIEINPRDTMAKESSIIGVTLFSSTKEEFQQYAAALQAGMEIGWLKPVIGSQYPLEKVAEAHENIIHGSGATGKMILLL
UniProt P21291: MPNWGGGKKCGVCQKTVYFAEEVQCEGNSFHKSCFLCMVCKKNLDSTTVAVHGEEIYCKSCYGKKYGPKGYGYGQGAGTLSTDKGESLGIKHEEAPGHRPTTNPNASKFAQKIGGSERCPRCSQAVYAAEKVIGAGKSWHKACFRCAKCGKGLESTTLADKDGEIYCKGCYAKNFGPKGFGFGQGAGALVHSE
UniProt P46109: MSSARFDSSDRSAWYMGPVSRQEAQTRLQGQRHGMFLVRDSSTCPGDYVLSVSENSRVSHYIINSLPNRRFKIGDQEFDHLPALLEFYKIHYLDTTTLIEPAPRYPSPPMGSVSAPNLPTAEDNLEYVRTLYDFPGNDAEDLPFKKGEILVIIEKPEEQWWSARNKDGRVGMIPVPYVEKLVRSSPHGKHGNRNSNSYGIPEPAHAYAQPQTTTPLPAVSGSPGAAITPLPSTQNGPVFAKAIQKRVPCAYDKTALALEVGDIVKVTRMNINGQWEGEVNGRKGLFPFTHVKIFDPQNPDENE
UniProt Q1MSJ5: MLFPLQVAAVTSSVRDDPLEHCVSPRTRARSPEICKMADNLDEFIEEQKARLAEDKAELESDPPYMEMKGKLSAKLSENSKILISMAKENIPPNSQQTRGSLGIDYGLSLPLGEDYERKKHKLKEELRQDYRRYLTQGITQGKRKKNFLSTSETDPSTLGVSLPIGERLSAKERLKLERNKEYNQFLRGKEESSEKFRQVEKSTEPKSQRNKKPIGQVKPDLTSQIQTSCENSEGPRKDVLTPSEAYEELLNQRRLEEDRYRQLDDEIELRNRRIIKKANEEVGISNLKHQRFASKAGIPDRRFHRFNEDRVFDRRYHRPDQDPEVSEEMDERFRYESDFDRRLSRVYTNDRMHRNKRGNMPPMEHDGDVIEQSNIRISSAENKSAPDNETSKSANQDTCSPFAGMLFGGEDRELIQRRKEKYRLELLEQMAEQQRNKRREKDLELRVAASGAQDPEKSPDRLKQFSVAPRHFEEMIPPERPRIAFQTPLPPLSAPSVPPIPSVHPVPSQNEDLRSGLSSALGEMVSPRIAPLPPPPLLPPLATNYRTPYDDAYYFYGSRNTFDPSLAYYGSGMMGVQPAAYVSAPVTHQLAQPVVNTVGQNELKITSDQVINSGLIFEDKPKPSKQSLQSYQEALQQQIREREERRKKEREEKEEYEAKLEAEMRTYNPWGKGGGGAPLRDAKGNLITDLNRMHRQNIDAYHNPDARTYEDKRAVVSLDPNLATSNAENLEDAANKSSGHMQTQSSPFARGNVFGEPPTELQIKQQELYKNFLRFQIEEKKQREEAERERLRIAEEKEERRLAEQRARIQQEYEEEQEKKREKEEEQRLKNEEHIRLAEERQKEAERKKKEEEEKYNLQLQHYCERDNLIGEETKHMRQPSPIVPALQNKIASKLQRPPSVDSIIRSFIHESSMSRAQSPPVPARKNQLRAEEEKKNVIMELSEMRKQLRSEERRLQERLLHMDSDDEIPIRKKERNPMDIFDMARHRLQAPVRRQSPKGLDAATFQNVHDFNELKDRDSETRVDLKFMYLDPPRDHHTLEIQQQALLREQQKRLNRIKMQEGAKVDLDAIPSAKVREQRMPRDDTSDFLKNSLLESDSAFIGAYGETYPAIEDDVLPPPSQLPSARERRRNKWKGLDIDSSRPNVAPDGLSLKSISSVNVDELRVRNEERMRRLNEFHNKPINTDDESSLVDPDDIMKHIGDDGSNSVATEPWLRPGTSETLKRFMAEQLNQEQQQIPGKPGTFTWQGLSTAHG
UniProt P0DMU9: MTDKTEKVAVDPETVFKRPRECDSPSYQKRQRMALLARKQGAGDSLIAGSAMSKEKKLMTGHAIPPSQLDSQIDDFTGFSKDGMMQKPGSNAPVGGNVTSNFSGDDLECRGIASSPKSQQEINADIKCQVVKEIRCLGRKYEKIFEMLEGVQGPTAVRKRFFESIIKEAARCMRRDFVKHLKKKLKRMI
UniProt Q96C57: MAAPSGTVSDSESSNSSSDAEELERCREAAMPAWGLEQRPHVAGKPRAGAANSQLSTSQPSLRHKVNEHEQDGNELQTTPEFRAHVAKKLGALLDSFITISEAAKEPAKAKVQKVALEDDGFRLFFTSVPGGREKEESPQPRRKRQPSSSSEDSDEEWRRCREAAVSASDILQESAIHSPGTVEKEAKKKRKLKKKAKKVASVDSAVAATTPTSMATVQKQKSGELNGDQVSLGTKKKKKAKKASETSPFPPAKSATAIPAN

How the values were obtained:
Assay in all cases: log2 fold change, soluble protein after heating vs DMSO (PISA); higher = thermal stabilisation; K562 lysate, 10 uM; active = over 0.2 and 3.5 SD of the protein, either way, in both replicates (recomputed)
erlotinib = compound: C#Cc1cccc(Nc2ncnc3cc(OCCOC)c(OCCOC)cc23)c1 [erlotinib]
Method in brief: (§1)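 Pellets of K562 cells were dounce-homogenised in PBS pH 7.4 with 1 mM MgCl2, and the crude extract was held at 1 mg/mL protein for a 30 min treatment with 10 μM compound. Aliquots were heated for 3 min over 48°C-58°C and pooled before NP-40 was added to 0.5% at 4°C. The supernatant from 21,000xg for 90 min was quantified by TMTpro 16plex LC-MS/MS with channel sums equalised. Values are reported from duplicates as log-two fold change in thermal stability relative to solvent controls.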

[1] = compound: C/C(=N\NC(=O)C1=CC(=CC=C1)S(=O)(=O)N2CCOCC2)/C3=C(C=CC(=C3)Cl)O
Method in brief: as §1

[2] = compound: C1=CC(=CC=C1C2=NC3=C(N2)C=C(C=C3)C(=O)N)OC4=CC=C(C=C4)Cl
Method in brief: as §1

[3] = compound: C1=CC2=C(C=CC(=C2)/C=C\3/C(=O)NC(=NCC4=CC=CS4)S3)N=C1
Method in brief: as §1

[4] = compound: C1=CC2=NC=CN=C2C=C1/C=C/3\C(=O)NC(=O)S3
Method in brief: as §1

[5] = compound: C1=CC=C(C=C1)C2=NC(=C(N2)C3=CC=NC=C3)C4=CC(=C(C=C4)Cl)O
Method in brief: as §1

[6] = compound: C1=CC=C2C(=C1)C3=NNC4=CC=CC(=C43)C2=O
Method in brief: as §1

[7] = compound: C1CCN(C1)C(=O)NC2=CC=CC(=C2)NC3=NC=C(C(=N3)NCCC4=CN=CN4)Br
Method in brief: as §1

[8] = compound: C1CN(CCC1(CC2=CC=C(C=C2)Cl)N)C3=NC=NC4=C3C=CN4
Method in brief: as §1

IRAK-1-4 Inhibitor I = compound: C1COCCN1CCN2C3=CC=CC=C3N=C2NC(=O)C4=CC(=CC=C4)[N+](=O)[O-] [IRAK-1-4 Inhibitor I]
Method in brief: as §1

ibrutinib = compound: C=CC(=O)N1CCC[C@@H](n2nc(-c3ccc(Oc4ccccc4)cc3)c3c(N)ncnc32)C1 [ibrutinib]
Method in brief: as §1

[9] = compound: CC(=O)c1cnc2ccc(-c3cc(Cl)c(O)c(Cl)c3)nc2c1N[C@H]1CC[C@H](CN(C)C)CC1
Method in brief: as §1

ralimetinib = compound: CC(C)(C)Cn1c(N)nc2ccc(-c3[nH]c(C(C)(C)C)nc3-c3ccc(F)cc3)nc21 [ralimetinib]
Method in brief: as §1

[10] = compound: CC(C)(O)CC(=O)NCCn1ccc2ncnc(Nc3ccc(Oc4cccc(C(F)(F)F)c4)c(Cl)c3)c21
Method in brief: as §1

[11] = compound: CC(C)C1=C2N=C(C=C(N2N=C1)NCC3=CC=CC=C3)NCCCCCCN
Method in brief: as §1

[12] = compound: CC1=C(C(CC(=O)N1)C2=CC=C(C=C2)C(F)(F)F)C(=O)NC3=C(C=C4C(=C3)C=NN4)F
Method in brief: as §1

[13] = compound: CC1=C(C2=C(C=C1)C(=O)C3=CC=CC=C3N2CCCN)C
Method in brief: as §1

[14] = compound: CC1=C(C=C(C=C1)NC(=O)C2=CC(=CC=C2)C(C)(C)C#N)NC3=CC4=C(C=C3)N=CN(C4=O)C
Method in brief: as §1

[15] = compound: CC1=C(C=C(C=C1)NC(=O)C2=CC(=CC=C2)N(C)C)NC(=O)C3=CC=C(C=C3)O
Method in brief: as §1

[16] = compound: CC1=CC=C(C=C1)SC2=C3C=C(SC3=CN=C2)C(=O)N
Method in brief: as §1

Measured: log2 fold change

CYB5R2 (UniProt Q6BCY4)
inactive: erlotinib -0.031 | [1] -0.062 | [2] 0.055 | [3] -0.045 | [4] -0.014 | [5] -0.021 | [6] 0.012 | [7] -0.057 | [8] 0.026 | IRAK-1-4 Inhibitor I 0.013 | ibrutinib 0.021 | [9] 0.016 | ralimetinib 0.018 | [10] -0.04 | [11] 0.01 | [12] -0.01 | [13] -0.027 | [14] 0.021 | [15] 0.008 | [16] -0.02

CYB5R3 isoform 3 (UniProt P00387)
inactive: erlotinib -0.034 | [1] 0.019 | [2] 0.005 | [3] 0.004 | [4] 0.002 | [5] -0.037 | [6] 0.044 | [7] 0.029 | [8] 0.035 | IRAK-1-4 Inhibitor I -0.026 | ibrutinib -0.021 | [9] -0.034 | ralimetinib -0.005 | [10] -0.035 | [11] -0.015 | [12] 0.033 | [13] 0.035 | [14] 0.046 | [15] 0.015 | [16] -0.009

CTSL (UniProt P07711)
inactive: erlotinib 0.004 | [1] 0.059 | [2] 0.012 | [3] -0.017 | [4] -0.007 | [5] 0 | [6] 0.007 | [7] -0.023 | [8] -0.026 | IRAK-1-4 Inhibitor I 0.021 | ibrutinib 0.044 | [9] 0.005 | ralimetinib -0.015 | [10] 0.01 | [11] 0.013 | [12] -0.035 | [13] 0.005 | [14] -0.004 | [15] -0.065 | [16] 0.011

Quoted at random: 2 records from the list, in no set order.
CYB5R3 isoform 3 (UniProt P00387)
inactive: erlotinib -0.034 | [1] 0.019 | [2] 0.005 | [3] 0.004 | [4] 0.002 | [5] -0.037 | [6] 0.044 | [7] 0.029 | [8] 0.035 | IRAK-1-4 Inhibitor I -0.026 | ibrutinib -0.021 | [9] -0.034 | ralimetinib -0.005 | [10] -0.035 | [11] -0.015 | [12] 0.033 | [13] 0.035 | [14] 0.046 | [15] 0.015 | [16] -0.009

CYB5R2 (UniProt Q6BCY4)
inactive: erlotinib -0.031 | [1] -0.062 | [2] 0.055 | [3] -0.045 | [4] -0.014 | [5] -0.021 | [6] 0.012 | [7] -0.057 | [8] 0.026 | IRAK-1-4 Inhibitor I 0.013 | ibrutinib 0.021 | [9] 0.016 | ralimetinib 0.018 | [10] -0.04 | [11] 0.01 | [12] -0.01 | [13] -0.027 | [14] 0.021 | [15] 0.008 | [16] -0.02

(listing goes on)

CTNNBL1 (UniProt Q8WYA6)
inactive: erlotinib 0.023 | [1] 0.052 | [2] 0.023 | [3] 0.018 | [4] 0.015 | [5] 0.103 | [6] -0.033 | [7] -0.042 | [8] -0.033 | IRAK-1-4 Inhibitor I 0.088 | ibrutinib 0 | [9] 0.047 | ralimetinib -0.095 | [10] -0.169 | [11] 0.017 | [12] -0.051 | [13] -0.04 | [14] 0.015 | [15] 0.056 | [16] 0.01

CUTC (UniProt Q9NTM9)
inactive: erlotinib 0.019 | [1] -0.026 | [2] -0.026 | [3] 0.017 | [4] -0.006 | [5] -0.034 | [6] 0.003 | [7] 0.005 | [8] -0.023 | IRAK-1-4 Inhibitor I 0.017 | ibrutinib 0.047 | [9] 0.004 | ralimetinib -0.018 | [10] 0.006 | [11] -0.022 | [12] -0.064 | [13] -0.044 | [14] 0.004 | [15] 0.002 | [16] -0.021

CRELD2 isoform 5 (UniProt Q6UXH1)
inactive: erlotinib 0.06 | [1] -0.053 | [2] -0.033 | [3] -0.021 | [4] -0.018 | [5] 0.045 | [6] -0.046 | [7] -0.025 | [8] 0.004 | IRAK-1-4 Inhibitor I -0.002 | ibrutinib -0.269 | [9] 0.012 | ralimetinib -0.037 | [10] 0.053 | [11] -0.11 | [12] 0.05 | [13] -0.032 | [14] 0.068 | [15] -0.002 | [16] -0.016

CTNNA2 (UniProt P26232)
inactive: erlotinib 0.045 | [1] 0.002 | [2] 0.06 | [3] -0.01 | [4] 0 | [5] -0.009 | [6] -0.004 | [7] -0.028 | [8] -0.003 | IRAK-1-4 Inhibitor I -0.031 | ibrutinib -0.001 | [9] 0.001 | ralimetinib 0.031 | [10] 0.028 | [11] -0.017 | [12] 0.008 | [13] -0.029 | [14] 0.04 | [15] -0.04 | [16] -0.025

CTNNA1 (UniProt P35221)
inactive: erlotinib -0.005 | [1] 0.004 | [2] 0.006 | [3] -0.021 | [4] -0.025 | [5] 0.023 | [6] 0.007 | [7] 0 | [8] -0.004 | IRAK-1-4 Inhibitor I 0.017 | ibrutinib -0.027 | [9] -0.018 | ralimetinib -0.03 | [10] -0.059 | [11] 0.026 | [12] 0.026 | [13] -0.014 | [14] 0.023 | [15] 0 | [16] -0.026

CRYZ (UniProt Q08257)
inactive: erlotinib -0.003 | [1] -0.026 | [2] 0.047 | [3] 0.002 | [4] 0.024 | [5] 0.003 | [6] 0.007 | [7] 0.003 | [8] 0.009 | IRAK-1-4 Inhibitor I 0.023 | ibrutinib -0.017 | [9] -0.008 | ralimetinib 0 | [10] -0.009 | [11] 0.002 | [12] -0.023 | [13] 0.019 | [14] 0.029 | [15] -0.016 | [16] -0.025

CSRP1 (UniProt P21291)
inactive: erlotinib 0.004 | [1] -0.039 | [2] 0.014 | [3] -0.013 | [4] 0.008 | [5] 0.017 | [6] 0.015 | [7] 0.023 | [8] -0.014 | IRAK-1-4 Inhibitor I 0.009 | ibrutinib -0.01 | [9] -0.023 | ralimetinib 0.001 | [10] -0.002 | [11] -0.051 | [12] -0.045 | [13] -0.023 | [14] 0.056 | [15] -0.017 | [16] -0.026

CRKL (UniProt P46109)
inactive: erlotinib -0.002 | [1] 0.042 | [2] 0.029 | [3] -0.006 | [4] -0.011 | [5] -0.012 | [6] 0.002 | [7] 0.017 | [8] 0.014 | IRAK-1-4 Inhibitor I 0.022 | ibrutinib 0.006 | [9] 0.003 | ralimetinib -0.011 | [10] -0.045 | [11] 0.002 | [12] -0.017 | [13] -0.007 | [14] 0.023 | [15] -0.001 | [16] -0.015

CTBP2 isoform 2 (UniProt P56545)
inactive: erlotinib 0.094 | [1] -0.013 | [2] 0.042 | [3] 0.006 | [4] 0.01 | [5] -0.007 | [6] -0.025 | [7] -0.001 | [8] -0.01 | IRAK-1-4 Inhibitor I -0.008 | ibrutinib 0.056 | [9] -0.016 | ralimetinib 0.003 | [10] 0.015 | [11] -0.005 | [12] -0.023 | [13] 0.011 | [14] 0.044 | [15] 0.026 | [16] -0.034

CSPP1 (UniProt Q1MSJ5)
inactive: erlotinib -0.028 | [1] -0.094 | [2] 0.079 | [3] 0.017 | [4] -0.088 | [5] 0.021 | [6] -0.137 | [7] -0.02 | [8] 0.007 | IRAK-1-4 Inhibitor I -0.026 | ibrutinib 0.052 | [9] 0 | ralimetinib 0 | [10] 0.026 | [11] -0.023 | [12] 0 | [13] -0.015 | [14] -0.074 | [15] -0.006 | [16] 0.084

CT45A10 (UniProt P0DMU9)
inactive: erlotinib -0.004 | [1] 0.018 | [2] 0.024 | [3] 0.002 | [4] -0.025 | [5] -0.008 | [6] 0.031 | [7] -0.004 | [8] -0.004 | IRAK-1-4 Inhibitor I -0.012 | ibrutinib 0.004 | [9] -0.004 | ralimetinib 0.037 | [10] 0.035 | [11] 0.053 | [12] 0.018 | [13] 0.024 | [14] -0.043 | [15] -0.002 | [16] 0.008

CUSTOS (UniProt Q96C57)
inactive: erlotinib -0.024 | [1] 0.014 | [2] -0.029 | [3] -0.027 | [4] -0.019 | [5] 0.009 | [6] -0.014 | [7] 0.024 | [8] -0.005 | IRAK-1-4 Inhibitor I 0.005 | ibrutinib 0.055 | [9] 0.015 | ralimetinib 0.041 | [10] -0.01 | [11] 0.029 | [12] 0.012 | [13] -0.017 | [14] 0.018 | [15] -0.03 | [16] -0.013
